Test results from PMC9943668.
No constants are given. Whether binding was seen depends on the method and setting. Binding seen in cells or lysates may run through a third protein. Some entries that bind do so weakly or less than the wild type. Sequences can lack the tags named with a protein.

Chains of the proteins cited; added tags and fusions are not shown.
UniProt Q13227: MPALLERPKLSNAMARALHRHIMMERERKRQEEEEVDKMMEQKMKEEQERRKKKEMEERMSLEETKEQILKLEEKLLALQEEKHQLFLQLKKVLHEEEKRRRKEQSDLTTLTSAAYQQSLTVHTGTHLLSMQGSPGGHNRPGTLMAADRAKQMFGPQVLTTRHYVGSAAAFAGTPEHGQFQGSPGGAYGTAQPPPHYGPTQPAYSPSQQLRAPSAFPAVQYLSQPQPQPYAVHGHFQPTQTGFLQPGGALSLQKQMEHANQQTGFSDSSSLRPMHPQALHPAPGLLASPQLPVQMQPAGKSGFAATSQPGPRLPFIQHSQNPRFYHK
UniProt P05412: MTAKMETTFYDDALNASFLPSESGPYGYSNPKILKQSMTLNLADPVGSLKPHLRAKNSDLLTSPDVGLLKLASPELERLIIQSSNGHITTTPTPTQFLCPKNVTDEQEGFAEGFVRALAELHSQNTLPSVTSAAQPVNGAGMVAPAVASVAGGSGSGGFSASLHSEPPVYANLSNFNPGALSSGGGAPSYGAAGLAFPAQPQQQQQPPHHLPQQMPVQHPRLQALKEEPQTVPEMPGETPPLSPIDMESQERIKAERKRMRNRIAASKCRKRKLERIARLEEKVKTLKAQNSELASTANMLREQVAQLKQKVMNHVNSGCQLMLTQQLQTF
UniProt O75376: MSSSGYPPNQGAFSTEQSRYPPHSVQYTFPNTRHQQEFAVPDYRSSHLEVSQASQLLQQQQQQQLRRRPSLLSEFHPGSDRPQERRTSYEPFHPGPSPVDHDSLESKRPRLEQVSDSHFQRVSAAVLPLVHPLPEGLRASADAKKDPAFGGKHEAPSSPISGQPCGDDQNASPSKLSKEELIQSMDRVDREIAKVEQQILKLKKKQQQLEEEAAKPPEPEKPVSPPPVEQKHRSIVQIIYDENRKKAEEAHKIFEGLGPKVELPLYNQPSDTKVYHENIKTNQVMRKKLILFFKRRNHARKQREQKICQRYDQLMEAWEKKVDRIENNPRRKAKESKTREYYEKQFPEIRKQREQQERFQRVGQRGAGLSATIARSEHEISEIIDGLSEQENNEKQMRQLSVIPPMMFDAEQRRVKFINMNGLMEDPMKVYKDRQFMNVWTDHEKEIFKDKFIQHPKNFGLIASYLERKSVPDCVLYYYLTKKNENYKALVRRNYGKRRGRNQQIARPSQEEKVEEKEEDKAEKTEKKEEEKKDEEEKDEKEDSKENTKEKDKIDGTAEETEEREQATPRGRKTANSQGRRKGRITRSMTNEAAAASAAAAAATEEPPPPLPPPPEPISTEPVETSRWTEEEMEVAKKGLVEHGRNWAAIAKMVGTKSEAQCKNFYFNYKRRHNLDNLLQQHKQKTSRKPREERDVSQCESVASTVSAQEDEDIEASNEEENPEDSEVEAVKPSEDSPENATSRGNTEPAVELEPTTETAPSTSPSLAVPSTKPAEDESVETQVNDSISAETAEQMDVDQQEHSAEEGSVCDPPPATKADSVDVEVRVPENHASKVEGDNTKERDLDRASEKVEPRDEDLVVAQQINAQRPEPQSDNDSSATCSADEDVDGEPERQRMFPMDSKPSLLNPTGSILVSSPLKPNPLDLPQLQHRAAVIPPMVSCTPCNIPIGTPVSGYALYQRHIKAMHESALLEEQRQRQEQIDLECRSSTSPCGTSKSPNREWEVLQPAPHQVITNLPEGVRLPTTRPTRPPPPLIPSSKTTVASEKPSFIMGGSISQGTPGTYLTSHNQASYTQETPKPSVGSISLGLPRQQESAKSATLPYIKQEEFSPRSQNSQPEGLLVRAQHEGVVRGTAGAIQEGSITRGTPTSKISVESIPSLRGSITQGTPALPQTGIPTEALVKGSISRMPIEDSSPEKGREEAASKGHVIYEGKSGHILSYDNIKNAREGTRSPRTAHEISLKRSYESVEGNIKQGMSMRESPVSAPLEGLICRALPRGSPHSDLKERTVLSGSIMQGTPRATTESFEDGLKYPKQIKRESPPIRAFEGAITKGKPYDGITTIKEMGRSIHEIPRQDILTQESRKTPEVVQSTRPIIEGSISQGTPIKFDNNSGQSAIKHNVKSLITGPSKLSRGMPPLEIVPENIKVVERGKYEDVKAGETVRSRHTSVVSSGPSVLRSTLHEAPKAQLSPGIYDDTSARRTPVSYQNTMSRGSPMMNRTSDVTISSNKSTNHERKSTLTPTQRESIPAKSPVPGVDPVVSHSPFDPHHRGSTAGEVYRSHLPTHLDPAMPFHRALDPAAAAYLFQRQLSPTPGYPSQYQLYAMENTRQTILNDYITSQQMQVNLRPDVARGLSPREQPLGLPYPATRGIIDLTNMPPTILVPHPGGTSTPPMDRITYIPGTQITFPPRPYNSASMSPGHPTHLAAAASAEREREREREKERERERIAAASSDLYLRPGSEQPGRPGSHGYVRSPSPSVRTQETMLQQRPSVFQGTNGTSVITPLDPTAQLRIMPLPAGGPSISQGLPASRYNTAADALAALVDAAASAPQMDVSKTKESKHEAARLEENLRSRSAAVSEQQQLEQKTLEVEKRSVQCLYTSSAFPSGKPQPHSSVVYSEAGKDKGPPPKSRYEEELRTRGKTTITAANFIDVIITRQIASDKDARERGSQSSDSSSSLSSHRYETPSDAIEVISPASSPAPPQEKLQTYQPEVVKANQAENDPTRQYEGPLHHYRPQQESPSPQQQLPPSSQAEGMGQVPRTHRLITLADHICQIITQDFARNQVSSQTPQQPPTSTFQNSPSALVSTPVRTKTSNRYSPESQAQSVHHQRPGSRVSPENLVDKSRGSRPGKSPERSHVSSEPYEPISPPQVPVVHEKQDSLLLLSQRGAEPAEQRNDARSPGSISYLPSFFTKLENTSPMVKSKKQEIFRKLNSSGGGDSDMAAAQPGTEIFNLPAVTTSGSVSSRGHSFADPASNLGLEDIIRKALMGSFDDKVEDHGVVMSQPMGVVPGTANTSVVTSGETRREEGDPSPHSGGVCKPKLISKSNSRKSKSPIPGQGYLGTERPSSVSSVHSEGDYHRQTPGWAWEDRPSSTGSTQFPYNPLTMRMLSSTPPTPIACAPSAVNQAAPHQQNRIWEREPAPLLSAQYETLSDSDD

B1: FLAG-tagged JUNB (protein, UniProt P17275 1-347)
chain: MCTKMEQPFYHDDSYTATGYGRAPGGLSLHDYKLLKPSLAVNLADPYRSLKAPGARGPGPEGGGGGSYFSGQGSDTGASLKLASSELERLIVPNSNGVITTTPTPPGQYFYPRGGGSGGGAGGAGGGVTEEQEGFADGFVKALDDLHKMNHVTPPNVSLGATGGPPAGPGGVYAGPEPPPVYTNLSSYSPASASSGGAGAAVGTGSSYPTTTISYLPHAPPFAGGHPAQLGLGRGASTFKEEPQTVPEARSRDATPPVSPINMEDQERIKVERKRLRNRLAATKCRKRKLERIARLEDKVKTLKAENAGLSSTAGLLREQVAQLKQKVMTHVSNGCQLLLGVKGHAF

Target: HA-GPS2 (G protein pathway suppressor 2) (UniProt Q13227)
Test: co-IP; HEK293 cells co-transfected with HA-GPS2 or HA-KDM1A and FLAG-tagged TFs/coregulators, lysed after 48 h; lysate incubated with anti-HA or anti-FLAG on protein A magnetic beads for 3 h at 4°C; western blot with anti-FLAG or anti-HA

binding, binds:
FLAG-tagged JUN (from UniProt P05412 1-331), FLAG-tagged NCOR (nuclear receptor corepressor 1) (from UniProt O75376 1-2440), B1
